Reference: patent US20090068109A1 (Janssen / Centocor, published 2009)
Results are given in words; binding and its absence hold for the method and conditions named. Some entries that bind do so weakly or less than the wild type.

Chains of the proteins cited; added tags and fusions are not shown. Residues count along the entry.
UniProt P13500, residues 24-99: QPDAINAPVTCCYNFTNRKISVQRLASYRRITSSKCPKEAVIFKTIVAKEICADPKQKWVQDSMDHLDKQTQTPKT
UniProt P51671, residues 24-97: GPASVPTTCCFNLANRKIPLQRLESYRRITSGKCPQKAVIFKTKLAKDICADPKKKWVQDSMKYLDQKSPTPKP

How the values were obtained:
cynomolgus monkey MCP-1 = biological target: T1, cynomolgus monkey MCP-1 (cynomolgus monkey, UniProt P61274 24-99); test: Biacore, Fab capture mode
T1 construct: also called cyno MCP-1; cyno CCL-2

[1] = biological target: native human MCP-1 purified from PANC-1 cell supernatant (human) (UniProt P13500); test: Biacore, Fab capture mode
human MCP-1 = human MCP-1 (human, UniProt P13500 24-99); test: Biacore specificity, captured Fab, 100 nM chemokine
human Eotaxin = biological target: T2, human Eotaxin (human, UniProt P51671 24-97); test: as above
T2 construct: also called Eotaxin-1; Eotaxin 1

Measured: binding

B1: MOR03548 Fab (Fab, V domains shown)
VH: QVQLVESGGGLVQPGGSLRLSCAASGFTFRSYGMSWVRQAPGKGLEWVSNIRSDGSYTYYADSVKGRFTISRDNSKNTLYLQMNSLRAEDTAVYYCARFEFTPWTYFDFWGQGTLVTVSS
VL: DIELTQPPSVSVAPGQTARISCSGDNLGKKYVYWYQQKPGQAPVLVIYDDDNRPSGIPERFSGSNSGNTATLTISGTQAEDEADYYCQSYTAQSSASFGGGTKLTVL
notes: Parental HuCAL GOLD Fab with C-terminal FLAG and 6xHis tags
binds: cynomolgus monkey MCP-1 | [1] | human MCP-1 | human Eotaxin
